Data set [1] relates to α-glucosidase (Yeast). In words: Isothermal titration calorimetry. The note with it: ITC, 25 °C. The format is binding. A general note: ITC needs no label: the signal is the heat of the interaction.
The test system of data set [2] is α-glucosidase (Yeast). In words: Fluorescence quenching (Stern–Volmer) and thermodynamic parameters. The format is binding. The note with it: for fluorescence burst (quenching) mechanism: Stern–Volmer plots; for ΔH: from Kb at 298, 303, 310 K. As to the method: An equal volume of polyphenol solution (0.02 mg/mL) was added to 3 mL of α-glucosidase solution (0.05 mg/mL) in 9 separate additions of 10 μL each. The mixture was shaken and then placed in a warm bath at 37 °C for 15 min. The system was scanned for fluorescence at three temperatures (298 K, 303 K, 310 K) using an F-7000 fluorescence spectrometer (Hitachi, Tokyo, Japan) at an excitation wavelength of 280 nm and excitation and emission slits of 5 nm. The fluorescence was scanned in the range of 310–500 nm and the corresponding blank control fluorescence spectra were subtracted to calculate the fluorescence. The Stern–Volmer equation was used to calculate the fluorescence burst constants and determine the type of burst.
Therefore, the spontaneity and binding force of their interactions can be studied by calculating thermodynamic parameters. The values of the free energy change (ΔG), enthalpy change (ΔH) and entropy change (ΔS) can be calculated by Equations (5) and (6). (5) ΔG=[…]=ΔH−TΔS (6) lnKb2/Kb1=[…]ΔH×1/R where R = 8.314 J/(mol·K).

Consider `C[C@@H]1O[C@@H](OC[C@H]2O[C@@H](Oc3c(-c4ccc(O)c(O)c4)oc4cc(O)cc(O)c4c3=O)[C@H](O)[C@@H](O)[C@@H]2O)[C@H](O)[C@H](O)[C@H]1O` [Rutin], for which the “binding process (heat)” value with α-glucosidase (Yeast) [1] is given as “heat-absorbing”. In addition, the ΔS with α-glucosidase (Yeast) [1] (listed as RU) worked out at 430 cal/mol/K; with α-glucosidase (Yeast) [2] (298 K) it was 31.72 J mol^−1 K^−1; in the data set on α-glucosidase (Yeast) [2] (303 K), 27.70 J mol^−1 K^−1; in the data set on α-glucosidase (Yeast) [2] (310 K), 27.08 J mol^−1 K^−1. For the same compound, the “n (binding sites)” value stood at 1.72 in the data set on α-glucosidase (Yeast) [2] (298 K), 1.71 in the data set with α-glucosidase (Yeast) [2] (303 K) and 1.71 with α-glucosidase (Yeast) [2] (310 K). The ΔG in the data set with α-glucosidase (Yeast) [2] (298 K) is -2.39 kJ/mol; with α-glucosidase (Yeast) [2] (303 K), -1.32 kJ/mol; in the data set with α-glucosidase (Yeast) [2] (310 K), -1.33 kJ/mol. The “fluorescence burst (quenching) mechanism” value in the data set on α-glucosidase (Yeast) [2] is recorded as “static bursts”. Further, in the data set on α-glucosidase (Yeast) [2], the ΔH stood at 28.48 kJ/mol.

In the case of `O=c1c(O)c(-c2ccc(O)cc2)oc2cc(O)cc(O)c12` [Kaempferol, kaempferol], in the data set on α-glucosidase (Yeast) [1], the “binding process (heat)” value is recorded as “exothermic”, the “n (binding stoichiometry)” value was found to be 1.05 and the ΔS is 97.5 cal/mol/K. In the data set on α-glucosidase (Yeast) [2] (298 K), the “n (binding sites)” value was found to be 1.67, the ΔG is -69.32 kJ/mol and the ΔS turned out to be 208.92 J mol^−1 K^−1. Further, in the data set with α-glucosidase (Yeast) [2] (303 K), the “n (binding sites)” value worked out at 1.83, the ΔG is -68.62 kJ/mol and the ΔS is on record as 203.15 J mol^−1 K^−1. In addition, in the data set with α-glucosidase (Yeast) [2] (310 K), the “n (binding sites)” value was 1.86, the ΔG is -69.23 kJ/mol and the ΔS stood at 200.53 J mol^−1 K^−1. In the data set with α-glucosidase (Yeast) [2], the “fluorescence burst (quenching) mechanism” value is reported as “static bursts” and the ΔH was -18.49 kJ/mol.

Turning to `O=c1c(O[C@@H]2O[C@H](CO)[C@H](O)[C@H](O)[C@H]2O)c(-c2ccc(O)c(O)c2)oc2cc(O)cc(O)c12` [Hyperoside, hyperoside], in the data set on α-glucosidase (Yeast) [1], the “binding process (heat)” value is listed as “heat-absorbing”, the “n (binding stoichiometry)” value was determined as 0.5, the ΔH is 1.3e+06 ± 510600 kcal/mol and the ΔS is recorded as 4380 cal/mol/K. Further, in the data set on α-glucosidase (Yeast) [2] (298 K), the “n (binding sites)” value is 1.91, the ΔG was -7.49 kJ/mol and the ΔS amounted to 1.41 J mol^−1 K^−1. In the data set on α-glucosidase (Yeast) [2] (303 K), the “n (binding sites)” value came out at 1.57, the ΔG is -5.41 kJ/mol and the ΔS was determined as 5.48 J mol^−1 K^−1. Also, in the data set with α-glucosidase (Yeast) [2] (310 K), the “n (binding sites)” value is reported as 1.80, the ΔG is -7.04 kJ/mol and the ΔS is reported as 0.09 J mol^−1 K^−1. Moreover, in the data set on α-glucosidase (Yeast) [2], the “fluorescence burst (quenching) mechanism” value is “static bursts” and the ΔH stood at 8.06 kJ/mol.

With `C[C@@H]1O[C@@H](Oc2c(-c3ccc(O)c(O)c3)oc3cc(O)cc(O)c3c2=O)[C@H](O)[C@H](O)[C@H]1O` [Quercitrin, quercitrin], in the data set with α-glucosidase (Yeast) [1], the “binding process (heat)” value is given as “exothermic”, the “n (binding stoichiometry)” value is 2.36 and the ΔS is given as 487 cal/mol/K. Also, in the data set on α-glucosidase (Yeast) [2] (298 K), the “n (binding sites)” value amounted to 1.72, the ΔG is -61.22 kJ/mol and the ΔS came to 181.73 J mol^−1 K^−1. Also, in the data set on α-glucosidase (Yeast) [2] (303 K), the “n (binding sites)” value came to 1.71, the ΔG was -59.72 kJ/mol and the ΔS is listed as 176.69 J mol^−1 K^−1. For the same compound, in the data set with α-glucosidase (Yeast) [2] (310 K), the “n (binding sites)” value came out at 1.71, the ΔG was -59.69 kJ/mol and the ΔS is given as 176.58 J mol^−1 K^−1. In addition, in the data set on α-glucosidase (Yeast) [2], the “fluorescence burst (quenching) mechanism” value is listed as “static bursts” and the ΔH was -40.30 kJ/mol.

Take `O=c1c(O)c(-c2ccc(O)c(O)c2)oc2cc(O)cc(O)c12` [Quercetin, quercetin]: in the data set with α-glucosidase (Yeast) [1], the “binding process (heat)” value is recorded as “exothermic”, the “n (binding stoichiometry)” value worked out at 2.04 and the ΔS is 129 cal/mol/K. For the same compound, in the data set with α-glucosidase (Yeast) [2] (298 K), the “n (binding sites)” value amounted to 2.30, the ΔG is -4.46 kJ/mol and the ΔS is 8.75 J mol^−1 K^−1. Also, in the data set on α-glucosidase (Yeast) [2] (303 K), the “n (binding sites)” value is 2.35, the ΔG was -4.64 kJ/mol and the ΔS is on record as 8.01 J mol^−1 K^−1. In the data set on α-glucosidase (Yeast) [2] (310 K), the “n (binding sites)” value was 2.34, the ΔG is -4.94 kJ/mol and the ΔS came out at 6.87 J mol^−1 K^−1. In the data set on α-glucosidase (Yeast) [2], the “fluorescence burst (quenching) mechanism” value is reported as “static bursts” and the ΔH was -5.34 kJ/mol.

The values are drawn from PMC9956223, “In Vitro Inhibitory Effects of Polyphenols from Flos sophorae immaturus on α-Glucosidase: Action Mechanism, Isothermal Titration Calorimetry and Molecular Docking Analysis” (Foods, 2023).
